These are yes or no findings as the source states them, for the method shown. Binding seen in cells or lysates may run through a third protein. Some results given as binding are weak or reduced against the parent protein; the word gives no strength. For some of these results: Where a sequence is shown, tags or fusion partners need not be part of it.

Binding data for two molecules are collected here from paper PMC6307817.

Test in all cases: co-IP; constructs co-expressed in HEK293T cells; lysis in 20mM Tris-HCl pH7.9, 150mM NaCl, 5mM EDTA, 1% NP-40, 5% glycerol; GFP-tagged protein precipitated with GFP-Trap (anti-GFP) beads, V5-tagged protein detected by anti-V5 blot
Test [1] addresses T1, TTBK2^Cterm-GFP (amino acids C-terminal to the kinase domain, 306-1243) (mouse) (UniProt Q3UVR3).
T1 sequence: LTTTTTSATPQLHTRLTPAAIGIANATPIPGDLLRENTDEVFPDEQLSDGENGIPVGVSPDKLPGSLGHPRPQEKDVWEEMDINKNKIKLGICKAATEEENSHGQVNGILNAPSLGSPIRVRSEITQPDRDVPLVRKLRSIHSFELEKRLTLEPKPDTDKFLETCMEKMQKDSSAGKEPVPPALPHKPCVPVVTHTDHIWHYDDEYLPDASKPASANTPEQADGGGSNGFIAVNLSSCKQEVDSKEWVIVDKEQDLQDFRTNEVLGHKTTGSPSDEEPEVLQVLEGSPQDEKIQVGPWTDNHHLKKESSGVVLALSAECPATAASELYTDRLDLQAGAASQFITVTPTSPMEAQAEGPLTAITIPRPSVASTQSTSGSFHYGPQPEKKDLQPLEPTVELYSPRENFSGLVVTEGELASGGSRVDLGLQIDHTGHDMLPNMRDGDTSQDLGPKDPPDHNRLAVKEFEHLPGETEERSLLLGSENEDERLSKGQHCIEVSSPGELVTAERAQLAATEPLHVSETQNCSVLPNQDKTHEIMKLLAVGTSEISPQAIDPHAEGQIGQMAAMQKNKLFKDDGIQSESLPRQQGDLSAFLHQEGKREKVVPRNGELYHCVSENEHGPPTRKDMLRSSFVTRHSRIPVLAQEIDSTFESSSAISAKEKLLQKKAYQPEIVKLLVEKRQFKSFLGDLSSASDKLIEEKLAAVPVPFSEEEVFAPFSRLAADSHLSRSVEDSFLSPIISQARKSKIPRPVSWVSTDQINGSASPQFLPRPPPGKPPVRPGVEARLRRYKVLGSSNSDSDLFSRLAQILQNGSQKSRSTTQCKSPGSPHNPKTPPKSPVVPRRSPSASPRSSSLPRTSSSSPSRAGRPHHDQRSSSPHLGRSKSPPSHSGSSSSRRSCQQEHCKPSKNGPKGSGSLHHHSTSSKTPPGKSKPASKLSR

The target in test [2] is full-length mouse Tau tubulin kinase 2 (TTBK2^FL) (mouse) (UniProt Q3UVR3).
Test [3] concerns the target T2, TTBK2^SCA11 (SCA11-associated truncation of TTBK2, amino acids 1-443) (mouse) (UniProt Q3UVR3).
T2 sequence: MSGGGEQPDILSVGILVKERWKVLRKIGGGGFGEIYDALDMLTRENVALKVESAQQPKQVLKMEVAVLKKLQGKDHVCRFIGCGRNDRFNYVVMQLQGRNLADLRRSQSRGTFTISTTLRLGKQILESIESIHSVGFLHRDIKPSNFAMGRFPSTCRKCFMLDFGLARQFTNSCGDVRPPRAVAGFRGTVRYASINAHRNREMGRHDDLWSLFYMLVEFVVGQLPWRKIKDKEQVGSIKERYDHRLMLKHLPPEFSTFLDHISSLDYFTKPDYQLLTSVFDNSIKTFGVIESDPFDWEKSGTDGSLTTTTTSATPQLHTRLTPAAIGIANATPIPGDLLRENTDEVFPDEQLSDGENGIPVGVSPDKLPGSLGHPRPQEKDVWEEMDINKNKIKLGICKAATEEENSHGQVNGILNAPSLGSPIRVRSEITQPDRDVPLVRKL

B1: full-length mouse Tau tubulin kinase 2 (TTBK2^FL) (protein, UniProt Q3UVR3 1-1243)
chain: MSGGGEQPDILSVGILVKERWKVLRKIGGGGFGEIYDALDMLTRENVALKVESAQQPKQVLKMEVAVLKKLQGKDHVCRFIGCGRNDRFNYVVMQLQGRNLADLRRSQSRGTFTISTTLRLGKQILESIESIHSVGFLHRDIKPSNFAMGRFPSTCRKCFMLDFGLARQFTNSCGDVRPPRAVAGFRGTVRYASINAHRNREMGRHDDLWSLFYMLVEFVVGQLPWRKIKDKEQVGSIKERYDHRLMLKHLPPEFSTFLDHISSLDYFTKPDYQLLTSVFDNSIKTFGVIESDPFDWEKSGTDGSLTTTTTSATPQLHTRLTPAAIGIANATPIPGDLLRENTDEVFPDEQLSDGENGIPVGVSPDKLPGSLGHPRPQEKDVWEEMDINKNKIKLGICKAATEEENSHGQVNGILNAPSLGSPIRVRSEITQPDRDVPLVRKLRSIHSFELEKRLTLEPKPDTDKFLETCMEKMQKDSSAGKEPVPPALPHKPCVPVVTHTDHIWHYDDEYLPDASKPASANTPEQADGGGSNGFIAVNLSSCKQEVDSKEWVIVDKEQDLQDFRTNEVLGHKTTGSPSDEEPEVLQVLEGSPQDEKIQVGPWTDNHHLKKESSGVVLALSAECPATAASELYTDRLDLQAGAASQFITVTPTSPMEAQAEGPLTAITIPRPSVASTQSTSGSFHYGPQPEKKDLQPLEPTVELYSPRENFSGLVVTEGELASGGSRVDLGLQIDHTGHDMLPNMRDGDTSQDLGPKDPPDHNRLAVKEFEHLPGETEERSLLLGSENEDERLSKGQHCIEVSSPGELVTAERAQLAATEPLHVSETQNCSVLPNQDKTHEIMKLLAVGTSEISPQAIDPHAEGQIGQMAAMQKNKLFKDDGIQSESLPRQQGDLSAFLHQEGKREKVVPRNGELYHCVSENEHGPPTRKDMLRSSFVTRHSRIPVLAQEIDSTFESSSAISAKEKLLQKKAYQPEIVKLLVEKRQFKSFLGDLSSASDKLIEEKLAAVPVPFSEEEVFAPFSRLAADSHLSRSVEDSFLSPIISQARKSKIPRPVSWVSTDQINGSASPQFLPRPPPGKPPVRPGVEARLRRYKVLGSSNSDSDLFSRLAQILQNGSQKSRSTTQCKSPGSPHNPKTPPKSPVVPRRSPSASPRSSSLPRTSSSSPSRAGRPHHDQRSSSPHLGRSKSPPSHSGSSSSRRSCQQEHCKPSKNGPKGSGSLHHHSTSSKTPPGKSKPASKLSR
With B1, the binding result in test [1] is “binds”; in test [2], “binds”; in test [3], “no binding”.

B2: TTBK2^SCA11 (SCA11-associated truncation of TTBK2, amino acids 1-443) (domain or fragment, UniProt Q3UVR3 1-443)
chain: T2 sequence
For the molecule B2, in test [3], the binding entry was “no binding”.
